Laboratory results: publication PMC10039360
Results are given in words; binding and its absence hold for the method and conditions named. Binding seen in cells or lysates may run through a third protein. Some binding calls cover weakened binding; strength is not graded here. Tags and fused reporters may be left off the sequences shown.

Target: T1, myc-LZTFL1 (Leucine Zipper Transcription Factor-like 1) (UniProt Q9NQ48)
T1 sequence: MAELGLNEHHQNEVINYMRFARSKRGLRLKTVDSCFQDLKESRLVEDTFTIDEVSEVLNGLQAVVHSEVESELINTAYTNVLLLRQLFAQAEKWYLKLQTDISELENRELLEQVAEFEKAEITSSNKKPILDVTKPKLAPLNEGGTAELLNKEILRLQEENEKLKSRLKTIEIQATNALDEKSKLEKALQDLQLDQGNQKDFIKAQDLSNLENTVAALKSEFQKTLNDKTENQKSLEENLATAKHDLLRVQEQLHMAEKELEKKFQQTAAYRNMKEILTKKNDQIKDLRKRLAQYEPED
Assay: co-IP; HEK293T cells transfected with myc-LZTFL1 and Flag-ZNRF1; immunoprecipitated with control IgG or anti-myc antibody, blotted with anti-flag or anti-myc antibody

B1: Flag-ZNRF1 (E3 ubiquitin-protein ligase ZNRF1) (enzyme, UniProt Q8ND25 1-227)
chain: MGGKQSTAARSRGPFPGVSTDDSAVPPPGGAPHFGHYRTGGGAMGLRSRSVSSVAGMGMDPSTAGGVPFGLYTPASRGTGDSERAPGGGGSASDSTYAHGNGYQETGGGHHRDGMLYLGSRASLADALPLHIAPRWFSSHSGFKCPICSKSVASDEMEMHFIMCLSKPRLSYNDDVLTKDAGECVICLEELLQGDTIARLPCLCIYHKSCIDSWFEVNRSCPEHPAD
For B1, the binding was “binds”.
